From paper PMC9266917 (International Journal of Molecular Sciences, 2022)

Test: general procedure: Fmoc solid-phase peptide synthesis; Rink Amide (0.38 mmol/g); HBTU/DIEA
Conditions: whole synthesis, 220 nm, scale of the general procedure 0.2 mmol

For KLALKLALKALKAALKLA-NH2, the “final HPLC purity” value was 100%.
